From paper PMC13193366
Results are given in words; binding and its absence hold for the method and conditions named. For part of these data: Binding seen in cells or lysates may run through a third protein. Sequences can lack the tags named with a protein. Blank lines part the entries; values can stand above or below the binder they belong to.

How the values were obtained:
[1] = molecular target: T1, PpCLF (Physcomitrium patens CLF), yeast two-hybrid fusion (Physcomitrium patens) (UniProt C0STZ0); test: two-hybrid; yeast two-hybrid of AtPWO2 (Fig. S12C); selection medium not told for this experiment
T1 sequence: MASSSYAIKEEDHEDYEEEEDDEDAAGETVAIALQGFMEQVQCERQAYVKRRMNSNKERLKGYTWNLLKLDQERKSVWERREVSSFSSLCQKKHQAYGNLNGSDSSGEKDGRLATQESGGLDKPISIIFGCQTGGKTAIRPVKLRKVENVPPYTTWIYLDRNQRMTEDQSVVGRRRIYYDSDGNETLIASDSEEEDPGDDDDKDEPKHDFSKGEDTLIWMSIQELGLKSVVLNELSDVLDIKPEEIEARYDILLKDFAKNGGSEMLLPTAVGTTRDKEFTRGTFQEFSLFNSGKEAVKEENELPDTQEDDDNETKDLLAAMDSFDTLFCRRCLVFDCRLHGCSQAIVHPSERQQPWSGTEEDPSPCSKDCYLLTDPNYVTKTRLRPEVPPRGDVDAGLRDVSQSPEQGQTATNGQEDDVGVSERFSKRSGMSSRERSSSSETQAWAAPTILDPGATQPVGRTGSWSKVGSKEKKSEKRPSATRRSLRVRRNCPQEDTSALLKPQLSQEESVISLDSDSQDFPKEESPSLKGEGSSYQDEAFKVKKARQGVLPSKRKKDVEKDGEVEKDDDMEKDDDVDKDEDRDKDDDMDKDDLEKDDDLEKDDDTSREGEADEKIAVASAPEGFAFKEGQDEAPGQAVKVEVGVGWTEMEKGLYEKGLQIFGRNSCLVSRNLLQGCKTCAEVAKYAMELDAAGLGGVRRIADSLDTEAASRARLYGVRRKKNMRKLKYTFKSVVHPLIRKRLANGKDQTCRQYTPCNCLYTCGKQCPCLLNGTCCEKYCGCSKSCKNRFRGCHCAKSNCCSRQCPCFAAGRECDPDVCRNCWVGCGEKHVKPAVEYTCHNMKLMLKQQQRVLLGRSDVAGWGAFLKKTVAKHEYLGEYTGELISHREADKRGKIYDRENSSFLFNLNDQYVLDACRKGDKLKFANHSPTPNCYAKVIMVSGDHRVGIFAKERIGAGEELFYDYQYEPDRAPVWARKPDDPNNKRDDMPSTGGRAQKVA

[2] = molecular target: T2, RFP-ARR2 (35Spro::RFP-ARR2) (Arabidopsis thaliana) (UniProt Q9ZWJ9); test: FRET or BRET; FLIM-FRET: GFP fluorescence lifetime in nuclei of Nicotiana tabacum leaf epidermal cells co-expressing GFP- and mCherry/RFP-tagged proteins; measured within nuclear speckles (AtPWO1, SmPWOa) or in the nucleolus (SmPWOb)
T2 sequence: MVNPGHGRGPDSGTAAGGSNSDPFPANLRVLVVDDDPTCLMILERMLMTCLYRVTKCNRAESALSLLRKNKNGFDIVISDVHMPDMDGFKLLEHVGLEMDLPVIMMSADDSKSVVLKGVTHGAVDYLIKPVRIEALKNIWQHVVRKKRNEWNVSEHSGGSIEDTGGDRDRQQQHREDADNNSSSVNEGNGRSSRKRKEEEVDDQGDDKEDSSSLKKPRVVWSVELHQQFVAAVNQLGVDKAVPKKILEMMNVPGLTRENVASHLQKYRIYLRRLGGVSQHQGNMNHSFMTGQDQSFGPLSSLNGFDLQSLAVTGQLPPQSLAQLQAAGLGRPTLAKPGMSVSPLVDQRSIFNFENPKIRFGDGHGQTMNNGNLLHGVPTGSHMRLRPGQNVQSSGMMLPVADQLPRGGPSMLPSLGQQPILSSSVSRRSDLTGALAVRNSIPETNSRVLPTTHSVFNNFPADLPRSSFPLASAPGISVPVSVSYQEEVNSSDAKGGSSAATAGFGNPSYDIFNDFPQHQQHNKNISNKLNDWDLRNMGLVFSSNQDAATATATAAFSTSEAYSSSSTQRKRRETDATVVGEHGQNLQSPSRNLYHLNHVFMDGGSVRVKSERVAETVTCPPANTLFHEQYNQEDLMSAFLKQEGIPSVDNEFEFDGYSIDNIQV

[3] = molecular target: T3, RFP-ARR1 (35Spro::RFP-ARR1; ARABIDOPSIS RESPONSE REGULATOR1) (Arabidopsis thaliana) (UniProt Q940D0); test: as above
T3 sequence: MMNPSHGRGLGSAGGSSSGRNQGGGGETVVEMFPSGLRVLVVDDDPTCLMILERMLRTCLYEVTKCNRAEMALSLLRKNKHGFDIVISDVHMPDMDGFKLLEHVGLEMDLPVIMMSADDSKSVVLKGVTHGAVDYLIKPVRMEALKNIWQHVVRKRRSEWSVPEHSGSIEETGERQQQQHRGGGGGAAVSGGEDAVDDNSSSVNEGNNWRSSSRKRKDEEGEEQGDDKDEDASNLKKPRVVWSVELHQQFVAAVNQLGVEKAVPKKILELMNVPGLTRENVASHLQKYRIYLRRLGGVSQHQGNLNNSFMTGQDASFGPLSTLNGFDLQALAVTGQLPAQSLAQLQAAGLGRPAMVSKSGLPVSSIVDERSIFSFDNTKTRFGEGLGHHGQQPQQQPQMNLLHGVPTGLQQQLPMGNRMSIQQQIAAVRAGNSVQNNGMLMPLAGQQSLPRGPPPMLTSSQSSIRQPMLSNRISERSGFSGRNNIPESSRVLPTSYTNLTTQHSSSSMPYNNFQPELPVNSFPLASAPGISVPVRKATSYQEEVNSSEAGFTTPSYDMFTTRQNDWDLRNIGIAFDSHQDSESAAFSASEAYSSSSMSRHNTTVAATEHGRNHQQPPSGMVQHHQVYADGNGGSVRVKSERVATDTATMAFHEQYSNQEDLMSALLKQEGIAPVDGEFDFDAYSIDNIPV

binding [1]: no binding
B1: AtPWO2, yeast two-hybrid fusion (protein, UniProt P59278 1-597)
chain: MESNDDRNLEAINASVGRLVWVRRRNGSWWPGQTLVHDQVPDNSLVGPKVGTPIKLLGRDDVSVDWYILENSKTVKAFRCGEYDTCIEKAKASSSKKRSGKCTLREDAINNALKIENEHLAKEDDNLCNLSGEEDSKRCLSGKEDEDSGSSDAEETEDDELASAPEQLQSSISSQEMNNVGASKVQSKRRRTPNDSEDDGTEGVKRMRGLEDIGKEQAGGIVEHKQDLDLICAVGLSDSVSNGNTIANGNKVCSPSSLKRNVSECSKRKNRRRQLTKVLESTAMVSVPVTCDQGVSLDCQGIYDSKVSGMESVESMKSVSVVINNNSDSTGVSCEDAYENVVGASHNNKAKDSEISSISVSAEDDSSDRLFDVPLTGEENHSEGFPAACRISSPRKALVTDLTRRCGRNSHNVFVKNEASNGSACTSPPASEPVNCILSGIEKNTSKWQLKGKRNSRQMSKKQEERRNVYGEEANNNSSTPHSTLYEVKIEVKASYTKPRVPLVSRMSELSGKAIVGHPLSVEILEEDYSNGMVMPPVVAKAKSLPKKNGKKQTTEKAKETVVACIPLKVVFSRINEVLKGSARQTQHRALPSAAKT

binding [2]: no binding
binding [3]: no binding
B2: AtPWO1-GFP (i35Spro::AtPWO1-GFP) (protein, UniProt Q9M9N3 1-769)
chain: MASPGSGAVDWTVGSIVWVRRRNGSWWPGRILGQEDLDSTHITSPRSGTPVKLLGREDASVDWYNLEKSKRVKPFRCGDFDECIERVESSQAMIIKKREKYARREDAILHALELEKEMLKREGKLVPEKARDDSLDATKERMAIVRVQDTSNGTRESTDYLRTNHVGDVMHLLRDKEEDQPSCEDEAVPRMRGLQDFGLRTASSKRKISCSNGPDTSFKYLARSNSSASSSGDHSMERPIYTLGKEKTKSRAEAKRTKYMFTPSESNDVSDLHENLLSHRDAMHSSFAGGDTRYSDYDPPNFLEDMESDYSESETDSSDMEEDTDDDIPLLSGAGRHSERRNTFSRHTSGEDESTSSEEDHYESSISGDSSYLYSQNPNNEASTVSNWQHKGKRNFRTLPRRSARKRKLHRNRLEDGRYCEYKRRAFGQKPMGYGLDFNGINDMSDGTDDTDPNERQFGDRMIVPGDDYQLSNVVASRCKNIYSHDMLDWDDDPWEGRIGMKKRGEEKLEGLGQEFDVSERHFGRKTYSSLMDVDLEVRGSYQKGPVPIVSLMSKLNGRAIIGHPVEVEVLADGSSESYIQTIDYFGNETTYQDKTFLLPSAWKTARRSNSRVPRLQPFSSSVEADDDATYDYSLADQGRKPLVKKLGLGHFSNDDNSVRRNSSLRIPRPPAERKQQHQQQQKKLLKNTNATASQKTRALSSFSGEQGHNGMKASRDRTHELSNRRVLPGPPTVACIPVKLVYSRLLEKINRPPSKPTAKAFNERRRVQ
